These are yes or no findings as the source states them, for the method shown. Binding can be weak; no strength is given.
Biological target: GST-ARL6IP1 (recombinant, purified from E. coli) (human) (UniProt Q15041)
Experiment: pull-down; in vitro binding: GST-ARL6IP1 and His-LC3/GABARAP family proteins from E. coli (0.5 ug each), PBST, overnight, 4 C; GST-ARL6IP1 held on glutathione Sepharose 4B; western blot; both purified

The chains behind the UniProt entries cited, without tags or fusion partners. Residues count along the entry.
UniProt O95166: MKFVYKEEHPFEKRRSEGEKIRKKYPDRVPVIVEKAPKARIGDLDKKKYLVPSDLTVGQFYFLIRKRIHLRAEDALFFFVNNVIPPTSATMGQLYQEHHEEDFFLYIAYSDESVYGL
UniProt P60520: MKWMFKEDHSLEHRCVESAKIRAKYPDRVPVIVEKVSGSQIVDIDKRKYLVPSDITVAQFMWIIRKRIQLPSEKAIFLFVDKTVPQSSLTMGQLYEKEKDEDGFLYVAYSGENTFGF
UniProt Q9BXW4, residues 1-126: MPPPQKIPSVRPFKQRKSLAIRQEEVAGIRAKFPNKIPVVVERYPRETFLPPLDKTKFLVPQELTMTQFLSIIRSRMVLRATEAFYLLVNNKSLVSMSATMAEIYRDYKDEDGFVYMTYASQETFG

binding, binds:
His-GABARAP (recombinant, purified from E. coli) (from UniProt O95166 1-117)
His-GABARAPL2 (recombinant, purified from E. coli) (from UniProt P60520 1-117)
His-LC3C (recombinant, purified from E. coli) (from UniProt Q9BXW4 1-126)

From paper PMC10630151
